Measured values taken from the supplement of paper PMC12823440, “Inhibitors supercharge kinase turnover through native proteolytic circuits” (Nature, 2025).
Counter-ions that a name gives are not always drawn. The list shows a part of the results. Hit calls seldom repeat between salt and free forms of one compound.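 Kinases, fused to nanoluciferase, were expressed in K562 cells; luminescence was measured every 4 h from 2 to 18 h as percent of control (DMSO = 100%, positive control = 0%). A time point is decreased if signal falls significantly (2 sigma). Hits were called by the authors by a rule that is not shown; the count of time points alone does not decide it.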

Amino acid sequences for entries named in this document (tags omitted). A change or cut given only in a name is not applied to a line headed by its entry.
UniProt P07949, whole entry, looked up: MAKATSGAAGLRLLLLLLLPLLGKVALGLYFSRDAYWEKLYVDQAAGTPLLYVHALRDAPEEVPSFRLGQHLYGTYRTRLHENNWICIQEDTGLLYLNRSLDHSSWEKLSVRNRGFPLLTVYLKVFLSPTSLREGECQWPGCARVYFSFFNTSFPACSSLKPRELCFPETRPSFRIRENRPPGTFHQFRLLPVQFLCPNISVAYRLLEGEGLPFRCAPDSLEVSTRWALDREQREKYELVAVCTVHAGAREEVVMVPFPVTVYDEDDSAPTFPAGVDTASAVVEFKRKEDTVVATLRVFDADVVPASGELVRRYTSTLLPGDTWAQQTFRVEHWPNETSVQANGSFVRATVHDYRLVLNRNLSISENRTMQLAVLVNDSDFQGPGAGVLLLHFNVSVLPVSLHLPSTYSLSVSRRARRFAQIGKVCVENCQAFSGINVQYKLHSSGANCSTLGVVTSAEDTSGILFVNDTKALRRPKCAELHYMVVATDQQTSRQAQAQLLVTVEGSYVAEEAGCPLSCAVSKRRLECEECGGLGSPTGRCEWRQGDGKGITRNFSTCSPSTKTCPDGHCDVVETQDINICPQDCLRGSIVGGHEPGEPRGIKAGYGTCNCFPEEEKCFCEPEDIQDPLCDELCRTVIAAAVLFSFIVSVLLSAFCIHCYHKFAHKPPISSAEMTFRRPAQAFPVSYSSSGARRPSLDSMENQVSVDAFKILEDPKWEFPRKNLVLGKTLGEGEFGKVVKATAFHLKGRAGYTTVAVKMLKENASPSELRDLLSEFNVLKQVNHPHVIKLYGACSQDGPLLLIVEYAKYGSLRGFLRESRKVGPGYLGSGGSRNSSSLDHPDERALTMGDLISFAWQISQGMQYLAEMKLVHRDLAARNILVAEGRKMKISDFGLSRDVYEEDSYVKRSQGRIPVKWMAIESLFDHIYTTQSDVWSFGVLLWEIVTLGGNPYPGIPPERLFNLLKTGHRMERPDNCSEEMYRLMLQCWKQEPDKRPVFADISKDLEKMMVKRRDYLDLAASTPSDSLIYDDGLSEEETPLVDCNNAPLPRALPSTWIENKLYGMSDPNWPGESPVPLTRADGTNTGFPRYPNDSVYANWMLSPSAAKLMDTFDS
UniProt P07949, whole entry M918T, looked up: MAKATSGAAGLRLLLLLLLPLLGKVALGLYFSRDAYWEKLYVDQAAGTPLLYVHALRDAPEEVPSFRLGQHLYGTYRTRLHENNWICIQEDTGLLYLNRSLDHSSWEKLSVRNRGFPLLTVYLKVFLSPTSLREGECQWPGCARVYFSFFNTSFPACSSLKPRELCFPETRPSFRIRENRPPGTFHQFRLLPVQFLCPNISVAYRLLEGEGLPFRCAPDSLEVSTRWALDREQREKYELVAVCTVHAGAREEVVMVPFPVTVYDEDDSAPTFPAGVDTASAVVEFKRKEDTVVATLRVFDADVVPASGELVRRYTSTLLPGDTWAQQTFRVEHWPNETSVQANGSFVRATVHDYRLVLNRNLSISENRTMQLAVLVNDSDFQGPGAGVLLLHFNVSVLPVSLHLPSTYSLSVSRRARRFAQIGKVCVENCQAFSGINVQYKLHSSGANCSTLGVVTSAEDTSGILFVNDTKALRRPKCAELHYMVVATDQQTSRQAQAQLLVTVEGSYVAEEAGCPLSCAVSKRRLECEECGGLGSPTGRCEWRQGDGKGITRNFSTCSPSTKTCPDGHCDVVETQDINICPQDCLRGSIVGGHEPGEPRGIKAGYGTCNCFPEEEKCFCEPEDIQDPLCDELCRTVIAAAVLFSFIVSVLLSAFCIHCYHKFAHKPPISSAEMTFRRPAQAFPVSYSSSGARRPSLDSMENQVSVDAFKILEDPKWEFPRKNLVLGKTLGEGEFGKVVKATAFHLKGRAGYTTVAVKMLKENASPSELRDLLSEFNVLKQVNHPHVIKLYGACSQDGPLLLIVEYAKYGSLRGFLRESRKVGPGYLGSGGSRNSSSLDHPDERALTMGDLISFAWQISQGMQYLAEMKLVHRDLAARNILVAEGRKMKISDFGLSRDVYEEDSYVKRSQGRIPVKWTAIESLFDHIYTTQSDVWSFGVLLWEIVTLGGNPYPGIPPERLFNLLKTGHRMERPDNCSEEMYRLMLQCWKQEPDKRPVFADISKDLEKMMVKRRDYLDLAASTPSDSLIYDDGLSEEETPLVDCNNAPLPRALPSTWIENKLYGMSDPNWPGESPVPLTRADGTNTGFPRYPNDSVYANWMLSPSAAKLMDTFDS
UniProt Q9BRS2: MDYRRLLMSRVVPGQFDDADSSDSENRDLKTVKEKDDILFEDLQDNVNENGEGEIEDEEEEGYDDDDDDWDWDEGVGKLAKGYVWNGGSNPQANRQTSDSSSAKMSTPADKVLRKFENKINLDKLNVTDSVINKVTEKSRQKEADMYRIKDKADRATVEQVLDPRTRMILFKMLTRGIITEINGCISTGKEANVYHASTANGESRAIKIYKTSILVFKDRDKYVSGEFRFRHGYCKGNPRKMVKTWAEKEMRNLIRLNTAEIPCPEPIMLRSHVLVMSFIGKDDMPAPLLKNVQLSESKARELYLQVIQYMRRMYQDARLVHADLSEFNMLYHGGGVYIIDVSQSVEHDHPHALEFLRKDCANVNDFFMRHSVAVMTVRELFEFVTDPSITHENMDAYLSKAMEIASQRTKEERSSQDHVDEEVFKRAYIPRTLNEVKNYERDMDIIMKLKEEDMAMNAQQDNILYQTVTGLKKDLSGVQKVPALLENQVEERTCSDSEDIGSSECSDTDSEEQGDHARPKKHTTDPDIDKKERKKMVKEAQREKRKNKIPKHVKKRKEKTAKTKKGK
UniProt Q13546: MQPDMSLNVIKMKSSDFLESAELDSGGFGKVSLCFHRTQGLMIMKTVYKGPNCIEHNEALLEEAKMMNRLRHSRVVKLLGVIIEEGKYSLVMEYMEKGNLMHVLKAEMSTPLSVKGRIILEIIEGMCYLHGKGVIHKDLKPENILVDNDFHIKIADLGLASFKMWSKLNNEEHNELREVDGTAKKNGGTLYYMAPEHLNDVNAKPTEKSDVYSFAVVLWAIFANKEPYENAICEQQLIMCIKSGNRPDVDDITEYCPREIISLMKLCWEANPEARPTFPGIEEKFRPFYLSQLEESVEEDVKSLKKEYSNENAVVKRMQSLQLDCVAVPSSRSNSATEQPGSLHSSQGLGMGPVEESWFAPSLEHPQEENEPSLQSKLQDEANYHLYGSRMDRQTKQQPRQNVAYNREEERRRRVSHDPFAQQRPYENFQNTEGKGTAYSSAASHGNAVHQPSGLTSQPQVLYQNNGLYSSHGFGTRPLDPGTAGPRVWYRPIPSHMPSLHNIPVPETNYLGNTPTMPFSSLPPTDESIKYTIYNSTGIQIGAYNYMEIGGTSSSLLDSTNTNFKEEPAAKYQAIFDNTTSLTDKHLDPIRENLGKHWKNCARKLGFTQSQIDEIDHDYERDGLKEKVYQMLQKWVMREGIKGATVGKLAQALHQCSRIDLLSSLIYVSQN
UniProt Q01974, whole entry: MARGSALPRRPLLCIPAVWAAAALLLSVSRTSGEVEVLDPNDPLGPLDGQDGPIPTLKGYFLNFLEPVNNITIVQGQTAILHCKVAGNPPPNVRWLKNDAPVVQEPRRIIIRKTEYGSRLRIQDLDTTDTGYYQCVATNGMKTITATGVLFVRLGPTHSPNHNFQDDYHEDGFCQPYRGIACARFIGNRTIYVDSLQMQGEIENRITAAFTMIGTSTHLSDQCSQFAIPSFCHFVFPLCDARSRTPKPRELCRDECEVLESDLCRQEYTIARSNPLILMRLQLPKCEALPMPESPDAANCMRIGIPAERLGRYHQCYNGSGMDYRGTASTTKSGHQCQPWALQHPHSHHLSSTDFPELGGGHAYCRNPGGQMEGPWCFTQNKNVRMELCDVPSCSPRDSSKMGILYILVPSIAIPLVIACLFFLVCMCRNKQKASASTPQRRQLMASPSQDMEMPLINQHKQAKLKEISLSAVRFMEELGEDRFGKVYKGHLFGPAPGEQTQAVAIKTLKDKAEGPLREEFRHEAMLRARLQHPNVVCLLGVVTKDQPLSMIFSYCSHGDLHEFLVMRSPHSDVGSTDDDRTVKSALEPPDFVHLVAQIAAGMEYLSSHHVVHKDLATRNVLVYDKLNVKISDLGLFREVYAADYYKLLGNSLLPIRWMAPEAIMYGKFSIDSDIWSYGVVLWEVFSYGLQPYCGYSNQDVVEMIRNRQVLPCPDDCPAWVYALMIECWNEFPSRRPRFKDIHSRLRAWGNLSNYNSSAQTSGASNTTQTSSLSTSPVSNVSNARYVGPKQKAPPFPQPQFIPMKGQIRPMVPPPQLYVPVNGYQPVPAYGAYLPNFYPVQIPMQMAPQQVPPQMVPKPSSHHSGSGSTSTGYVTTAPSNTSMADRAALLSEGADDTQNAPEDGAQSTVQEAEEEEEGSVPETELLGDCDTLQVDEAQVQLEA
UniProt Q15418, whole entry: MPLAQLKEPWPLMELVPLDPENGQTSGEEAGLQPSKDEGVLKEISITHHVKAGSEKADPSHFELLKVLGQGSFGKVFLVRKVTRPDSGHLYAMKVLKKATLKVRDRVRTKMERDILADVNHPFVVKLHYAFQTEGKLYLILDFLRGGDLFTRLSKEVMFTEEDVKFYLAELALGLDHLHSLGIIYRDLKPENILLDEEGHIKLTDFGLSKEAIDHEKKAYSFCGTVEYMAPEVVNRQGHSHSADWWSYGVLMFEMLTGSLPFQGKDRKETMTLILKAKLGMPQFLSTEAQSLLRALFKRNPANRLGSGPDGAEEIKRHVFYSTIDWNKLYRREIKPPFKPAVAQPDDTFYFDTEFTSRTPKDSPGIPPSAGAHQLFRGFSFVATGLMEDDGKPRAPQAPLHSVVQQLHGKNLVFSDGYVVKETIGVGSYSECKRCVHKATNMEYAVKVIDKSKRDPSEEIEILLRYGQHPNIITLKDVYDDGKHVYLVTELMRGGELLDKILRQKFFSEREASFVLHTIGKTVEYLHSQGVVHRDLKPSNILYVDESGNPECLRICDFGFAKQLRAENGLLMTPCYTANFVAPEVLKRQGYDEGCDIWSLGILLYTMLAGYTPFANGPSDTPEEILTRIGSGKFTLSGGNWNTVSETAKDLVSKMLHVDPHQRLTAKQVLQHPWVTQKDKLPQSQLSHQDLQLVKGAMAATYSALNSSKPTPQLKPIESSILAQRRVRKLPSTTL
UniProt Q9NYA1, whole entry: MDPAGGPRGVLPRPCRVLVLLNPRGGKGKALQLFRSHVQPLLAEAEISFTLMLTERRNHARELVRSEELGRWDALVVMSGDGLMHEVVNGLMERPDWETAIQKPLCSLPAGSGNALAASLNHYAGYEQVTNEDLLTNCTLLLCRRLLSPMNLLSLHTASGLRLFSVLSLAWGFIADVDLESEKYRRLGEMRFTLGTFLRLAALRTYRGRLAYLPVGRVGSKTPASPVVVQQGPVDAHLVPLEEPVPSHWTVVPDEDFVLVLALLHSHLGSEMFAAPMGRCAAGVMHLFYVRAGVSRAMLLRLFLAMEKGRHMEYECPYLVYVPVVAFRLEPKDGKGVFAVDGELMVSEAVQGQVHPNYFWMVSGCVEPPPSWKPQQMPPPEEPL
UniProt Q9Y6E0: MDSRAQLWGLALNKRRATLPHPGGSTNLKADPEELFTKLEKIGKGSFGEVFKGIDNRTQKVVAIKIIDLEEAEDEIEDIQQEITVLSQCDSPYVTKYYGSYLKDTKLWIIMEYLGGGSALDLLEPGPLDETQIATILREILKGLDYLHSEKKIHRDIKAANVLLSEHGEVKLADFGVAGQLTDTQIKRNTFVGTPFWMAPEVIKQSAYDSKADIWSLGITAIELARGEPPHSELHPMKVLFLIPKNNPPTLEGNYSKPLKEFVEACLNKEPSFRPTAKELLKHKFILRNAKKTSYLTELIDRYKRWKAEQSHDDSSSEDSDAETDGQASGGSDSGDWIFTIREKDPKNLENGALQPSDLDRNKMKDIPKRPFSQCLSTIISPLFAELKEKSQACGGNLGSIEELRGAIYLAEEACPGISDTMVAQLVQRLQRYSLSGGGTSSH

How the values were obtained:
Test in all cases: kinase-Nluc reporter destabilization hit call (1 = scored as downregulated) (binary); higher = compound decreases kinase abundance
Settings in all cases: K562; 2-18 h
RET = RET (UniProt P07949)
[1] = molecular target: RET_M918T (clone: RET_mut) (UniProt P07949)
RIOK1 = RIOK1 (UniProt Q9BRS2)
RIPK1 = RIPK1 (UniProt Q13546)
RIPK2 = RIPK2 (UniProt O43353)
ROR2 = ROR2 (UniProt Q01974)
RPS6KA1 = RPS6KA1 (UniProt Q15418)
SPHK1 = SPHK1 (UniProt Q9NYA1)
SRC = SRC (UniProt P12931)
STK24 = STK24 (UniProt Q9Y6E0)

Measured: kinase-Nluc reporter destabilization hit call

CC(C)Oc1cc(Nc2nc(N[C@@H](C)c3ccc(F)cn3)ncc2Cl)n[nH]1 (10 µM)
inactive: RET 0 | [1] 0 | RIOK1 = 0 | RIPK1 = 0 | RIPK2 = 0 | ROR2 = 0 | RPS6KA1 = 0 | SPHK1 = 0 | SRC 0 | STK24 = 0

COc1cc2nc(C)nc(N[C@H](C)c3cc(N)cc(C(F)(F)F)c3)c2cc1O[C@H]1CCOC1 (10 µM)
inactive: RET 0 | [1] 0 | RIOK1 = 0 | RIPK1 = 0 | RIPK2 = 0 | ROR2 = 0 | RPS6KA1 = 0 | SPHK1 = 0 | SRC 0 | STK24 = 0

COCc1c(-c2ccc(NC(=O)Nc3cc(C(F)(F)F)ccc3F)c(F)c2)c2c(N)ncnn2c1CN1CCOCC1 (2.5 µM)
inactive: RET 0 | [1] 0 | RIOK1 = 0 | RIPK1 = 0 | RIPK2 = 0 | ROR2 = 0 | RPS6KA1 = 0 | SPHK1 = 0 | SRC 0 | STK24 = 0

C[C@H](NC(=O)/C(C#N)=C/c1cccc(Br)n1)c1ccccc1 (2.5 µM)
inactive: RET 0 | [1] 0 | RIOK1 = 0 | RIPK1 = 0 | RIPK2 = 0 | ROR2 = 0 | RPS6KA1 = 0 | SPHK1 = 0 | SRC 0 | STK24 = 0

CN1CCC(Nc2ncc3ncnc(Nc4ccc(F)c(Cl)c4)c3n2)CC1 [Falnidamol] (10 µM)
inactive: RET 0 | [1] 0 | RIOK1 = 0 | RIPK1 = 0 | RIPK2 = 0 | ROR2 = 0 | RPS6KA1 = 0 | SPHK1 = 0 | SRC 0 | STK24 = 0

Brc1c(Br)c(Br)c2n[nH]nc2c1Br (10 µM)
inactive: RET 0 | [1] 0 | RIOK1 = 0 | RIPK1 = 0 | RIPK2 = 0 | ROR2 = 0 | RPS6KA1 = 0 | SPHK1 = 0 | SRC 0 | STK24 = 0

CN(C)Cc1ccc(-c2cnn3c(-c4cccc(NC(=O)c5cccc(C(F)(F)F)c5)c4)ccnc23)cc1 (2.5 µM)
inactive: RET 0 | [1] 0 | RIOK1 = 0 | RIPK1 = 0 | RIPK2 = 0 | ROR2 = 0 | RPS6KA1 = 0 | SPHK1 = 0 | SRC 0 | STK24 = 0

COc1c(Cl)cc2c([nH]c3cnccc32)c1NC(=O)c1cccnc1C (10 µM)
inactive: RET 0 | [1] 0 | RIOK1 = 0 | RIPK1 = 0 | RIPK2 = 0 | ROR2 = 0 | RPS6KA1 = 0 | SPHK1 = 0 | SRC 0 | STK24 = 0

Cc1ccc(NC(=O)c2cccc(N(C)C)c2)cc1NC(=O)c1ccc(O)cc1 (10 µM)
inactive: RET 0 | [1] 0 | RIOK1 = 0 | RIPK1 = 0 | RIPK2 = 0 | ROR2 = 0 | RPS6KA1 = 0 | SPHK1 = 0 | SRC 0 | STK24 = 0

O=c1c(-c2ccc(O)cc2)coc2cc(O)cc(O)c12 [Genistein] (10 µM)
inactive: RET 0 | [1] 0 | RIOK1 = 0 | RIPK1 = 0 | RIPK2 = 0 | ROR2 = 0 | RPS6KA1 = 0 | SPHK1 = 0 | SRC 0 | STK24 = 0

O=C1NCCc2[nH]c(-c3ccnc(-c4cnc5ccccc5c4)c3)cc21 (10 µM)
inactive: RET 0 | [1] 0 | RIOK1 = 0 | RIPK1 = 0 | RIPK2 = 0 | ROR2 = 0 | RPS6KA1 = 0 | SPHK1 = 0 | SRC 0 | STK24 = 0

CC(C)(C#N)c1ccc(N2C(=O)OCc3cnc4ccc(-c5cnc6ccccc6c5)cc4c32)cc1 (2.5 µM)
inactive: RET 0 | [1] 0 | RIOK1 = 0 | RIPK1 = 0 | RIPK2 = 0 | ROR2 = 0 | RPS6KA1 = 0 | SPHK1 = 0 | SRC 0 | STK24 = 0

CC(C)CC(=O)Nc1n[nH]c2c1CN(C(=O)C1CCN(C)CC1)C2(C)C (2.5 µM)
inactive: RET 0 | [1] 0 | RIOK1 = 0 | RIPK1 = 0 | RIPK2 = 0 | ROR2 = 0 | RPS6KA1 = 0 | SPHK1 = 0 | SRC 0 | STK24 = 0

C/C=C(/C)C(=O)O[C@H]1Cc2cc3ccc(=O)oc3cc2OC1(C)C [Decursinol angelate] (10 µM)
inactive: RET 0 | [1] 0 | RIOK1 = 0 | RIPK1 = 0 | RIPK2 = 0 | ROR2 = 0 | RPS6KA1 = 0 | SPHK1 = 0 | SRC 0 | STK24 = 0

CC(=O)NCC(=O)N1[C@@H]2CC[C@H]1c1ccc(Nc3ncc(C(F)(F)F)c(NC4CCC4)n3)cc12 (2.5 µM)
inactive: RET 0 | [1] 0 | RIOK1 = 0 | RIPK1 = 0 | RIPK2 = 0 | ROR2 = 0 | RPS6KA1 = 0 | SPHK1 = 0 | SRC 0 | STK24 = 0

COc1cc2c(Nc3ccc(NC(=O)c4ccccc4)cc3)ncnc2cc1OCCCN1CCOCC1 (10 µM)
inactive: RET 0 | [1] 0 | RIOK1 = 0 | RIPK1 = 0 | RIPK2 = 0 | ROR2 = 0 | RPS6KA1 = 0 | SPHK1 = 0 | SRC 0 | STK24 = 0

COc1cc2ncnc(Nc3cccc(Cl)c3F)c2cc1OC(=O)N1CCN(C)C[C@H]1C [Zorifertinib] (10 µM)
inactive: RET 0 | [1] 0 | RIOK1 = 0 | RIPK1 = 0 | RIPK2 = 0 | ROR2 = 0 | RPS6KA1 = 0 | SPHK1 = 0 | SRC 0 | STK24 = 0

Cc1ncc(-c2ccnc(Nc3ccc(S(C)(=O)=O)cc3)n2)n1C(C)C (2.5 µM)
inactive: RET 0 | [1] 0 | RIOK1 = 0 | RIPK1 = 0 | RIPK2 = 0 | ROR2 = 0 | RPS6KA1 = 0 | SPHK1 = 0 | SRC 0 | STK24 = 0

COc1ccc2c(C(=O)Nc3ccc(NC(=O)c4nn(C5CCN(C(=O)CC(C)(C)C#N)CC5)c5ccc(F)cc45)cc3Cl)cnn2c1 [Src Inhibitor 3] (2.5 µM)
inactive: RET 0 | [1] 0 | RIOK1 = 0 | RIPK1 = 0 | RIPK2 = 0 | ROR2 = 0 | RPS6KA1 = 0 | SPHK1 = 0 | SRC 0 | STK24 = 0

CCN1CCN(Cc2ccc(C(=O)Nc3ccc(C)c(Oc4ccc5c(c4)CC(=O)N5)c3)cc2C(F)(F)F)CC1 (2.5 µM)
inactive: RET 0 | [1] 0 | RIOK1 = 0 | RIPK1 = 0 | RIPK2 = 0 | ROR2 = 0 | RPS6KA1 = 0 | SPHK1 = 0 | SRC 0 | STK24 = 0

COc1ccc(COc2ccc(Cc3cnc(N)nc3N)cc2OC)cc1 (10 µM)
inactive: RET 0 | [1] 0 | RIOK1 = 0 | RIPK1 = 0 | RIPK2 = 0 | ROR2 = 0 | RPS6KA1 = 0 | SPHK1 = 0 | SRC 0 | STK24 = 0

COc1c(CC=C(C)C)c(O)cc2oc(=O)c(-c3ccc(O)cc3O)cc12 [Glycycoumarin] (10 µM)
inactive: RET 0 | [1] 0 | RIOK1 = 0 | RIPK1 = 0 | RIPK2 = 0 | ROR2 = 0 | RPS6KA1 = 0 | SPHK1 = 0 | SRC 0 | STK24 = 0

COc1ccc(C=C(C#N)c2cccnc2)cc1OC (10 µM)
inactive: RET 0 | [1] 0 | RIOK1 = 0 | RIPK1 = 0 | RIPK2 = 0 | ROR2 = 0 | RPS6KA1 = 0 | SPHK1 = 0 | SRC 0 | STK24 = 0

N#Cc1ccc2[nH]c(O)c(-c3ccc(CN4CCOCC4)cn3)c2c1 (10 µM)
inactive: RET 0 | [1] 0 | RIOK1 = 0 | RIPK1 = 0 | RIPK2 = 0 | ROR2 = 0 | RPS6KA1 = 0 | SPHK1 = 0 | SRC 0 | STK24 = 0

Some of these compounds in order of count of non-hydrogen atoms, smallest number first:
COc1ccc(C=C(C#N)c2cccnc2)cc1OC (10 µM)
inactive: RET 0 | [1] 0 | RIOK1 = 0 | RIPK1 = 0 | RIPK2 = 0 | ROR2 = 0 | RPS6KA1 = 0 | SPHK1 = 0 | SRC 0 | STK24 = 0

N#Cc1ccc2[nH]c(O)c(-c3ccc(CN4CCOCC4)cn3)c2c1 (10 µM)
inactive: RET 0 | [1] 0 | RIOK1 = 0 | RIPK1 = 0 | RIPK2 = 0 | ROR2 = 0 | RPS6KA1 = 0 | SPHK1 = 0 | SRC 0 | STK24 = 0

CCN1CCN(Cc2ccc(C(=O)Nc3ccc(C)c(Oc4ccc5c(c4)CC(=O)N5)c3)cc2C(F)(F)F)CC1 (2.5 µM)
inactive: RET 0 | [1] 0 | RIOK1 = 0 | RIPK1 = 0 | RIPK2 = 0 | ROR2 = 0 | RPS6KA1 = 0 | SPHK1 = 0 | SRC 0 | STK24 = 0

Continuation.

Cc1ccc(F)c(NC(=O)Nc2ccc(-c3cccc4[nH]nc(N)c34)cc2)c1 [Linifanib] (2.5 µM)
inactive: RET 0 | [1] 0 | RIOK1 = 0 | RIPK1 = 0 | RIPK2 = 0 | ROR2 = 0 | RPS6KA1 = 0 | SPHK1 = 0 | SRC 0 | STK24 = 0

CC#CC(=O)N[C@H]1CCCN(c2c(F)cc(C(N)=O)c3[nH]c(C)c(C)c23)C1 [Branebrutinib] (10 µM)
inactive: RET 0 | [1] 0 | RIOK1 = 0 | RIPK1 = 0 | RIPK2 = 0 | ROR2 = 0 | RPS6KA1 = 0 | SPHK1 = 0 | SRC 0 | STK24 = 0

COc1cc(C)c(Sc2cnc(NC(=O)c3ccc(CNC(C)C(C)(C)C)cc3)s2)cc1C(=O)N1CCN(C(C)=O)CC1 (stereo not given) (2.5 µM)
inactive: RET 0 | [1] 0 | RIOK1 = 0 | RIPK1 = 0 | RIPK2 = 0 | ROR2 = 0 | RPS6KA1 = 0 | SPHK1 = 0 | SRC 0 | STK24 = 0

CC(=O)N1CCN(c2ccc(OCC3COC(Cn4ccnc4)(c4ccc(Cl)cc4Cl)O3)cc2)CC1 (stereo not given) [Ketoconazole] (2.5 µM)
inactive: RET 0 | [1] 0 | RIOK1 = 0 | RIPK1 = 0 | RIPK2 = 0 | ROR2 = 0 | RPS6KA1 = 0 | SPHK1 = 0 | SRC 0 | STK24 = 0

Cn1nc(C(C)(C)C)cc1NC(=O)Nc1ccc(Oc2ccncc2)cc1 (10 µM)
inactive: RET 0 | [1] 0 | RIOK1 = 0 | RIPK1 = 0 | RIPK2 = 0 | ROR2 = 0 | RPS6KA1 = 0 | SPHK1 = 0 | SRC 0 | STK24 = 0

Nc1ncnc2c1c(-c1ccc(Oc3ccccc3)cc1)cn2C1CCCC1 (2.5 µM)
inactive: RET 0 | [1] 0 | RIOK1 = 0 | RIPK1 = 0 | RIPK2 = 0 | ROR2 = 0 | RPS6KA1 = 0 | SPHK1 = 0 | SRC 0 | STK24 = 0

CC(C)c1cnn2c(NCc3ccccc3)cc(NC[C@H]3CCNC[C@@H]3O)nc12 [Samuraciclib (hydrochloride)] (10 µM)
inactive: RET 0 | [1] 0 | RIOK1 = 0 | RIPK1 = 0 | RIPK2 = 0 | ROR2 = 0 | RPS6KA1 = 0 | SPHK1 = 0 | SRC 0 | STK24 = 0
